Source: US20030060416A1
Results are given in words; binding and its absence hold for the method and conditions named. Binding seen in cells or lysates may run through a third protein. Some entries that bind do so weakly or less than the wild type. Tags and fused reporters may be left off the sequences shown.

The chains behind the UniProt entries cited, without tags or fusion partners.
UniProt P10415: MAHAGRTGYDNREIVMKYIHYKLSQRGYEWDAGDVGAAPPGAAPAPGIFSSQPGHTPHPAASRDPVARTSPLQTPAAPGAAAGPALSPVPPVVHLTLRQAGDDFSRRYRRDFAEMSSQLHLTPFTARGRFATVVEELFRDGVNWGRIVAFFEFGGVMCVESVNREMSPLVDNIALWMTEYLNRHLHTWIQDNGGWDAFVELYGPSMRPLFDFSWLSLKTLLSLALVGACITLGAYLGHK
UniProt Q07817: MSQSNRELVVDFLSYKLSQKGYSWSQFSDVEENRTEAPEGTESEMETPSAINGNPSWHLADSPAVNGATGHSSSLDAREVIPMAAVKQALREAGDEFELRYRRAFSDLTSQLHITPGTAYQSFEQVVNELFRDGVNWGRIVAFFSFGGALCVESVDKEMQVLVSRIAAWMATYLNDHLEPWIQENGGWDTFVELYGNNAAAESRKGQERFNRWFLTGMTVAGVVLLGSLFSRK

Legend:
[1] = target: T7-epitope tagged Bcl-2 (human) (UniProt P10415); assay: co-immunoprecipitation from 293 cells (FIG. 5B legend)
[2] = target: T7-epitope tagged Bcl-xL (human) (UniProt Q07817); assay: as above
[3] = target: T7-epitope tagged Bcl-2 (human) (UniProt P10415); assay: co-immunoprecipitation from 293 cells (anti-Flag IP, T7-antibody immunoblot)
[4] = target: T7-epitope tagged Bcl-xL (human) (UniProt Q07817); assay: as above
[5] = target: T7-epitope tagged Bcl-2 (human), P10415; assay: co-immunoprecipitation from 293 cells (FIG. 5B legend); conditions: remark: other sources report otherwise
[6] = target: T7-epitope tagged Bcl-2 (human), P10415; assay: co-immunoprecipitation from 293 cells (anti-Flag IP, T7-antibody immunoblot); conditions: remark: other sources report otherwise

| binding [1] | binding [2] | binding [3] | binding [4] | binding [5] | binding [6] | Binder |
| --- | --- | --- | --- | --- | --- | --- |
| binds | binds | binds | binds |  |  | Flag-epitope tagged Blk (protein, not shown: small tags and cut ends) MSEARLMARDVIKTVPHDQVPQPPVASETPSMKEPVRDVDLMECVEGRNQVALRLACIGDEMDLCLRSPRLVQLPGIAIHRLAVTYSRTGVRGIFRSLIRSLTNLRENIWSWRVLTPGAWVSPDQDPGQLFPMVLLVFLLLGGAWYLQLQ |
|  |  |  |  | binds | binds | Flag-epitope tagged Bik, Q13323 1-160 (protein, human, UniProt Q13323 1-160, looked up, not shown: small tags and cut ends) MSEVRPLSRDILMETLLYEQLLEPPTMEVLGMTDSEEDLDPMEDFDSLECMEGSDALALRLACIGDEMDVSLRAPRLAQLSEVAMHSLGLAFIYDQTEDIRDVLRSFMDGFTTLKENIMRFWRSPNPGSWVSCEQVLLALLLLLALLLPLLSGGLHLLLK |
